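Methionyl-tRNA synthetase (putative), Leishmania donovani (UniProt E9BF75). Primary screen of methionyl-tRNA synthetase; the read-out is not stated. The test concentration is not given. The values are filed as inhibition. About 68,000 compounds were tested under these conditions; 0.035% (about 24) showed 50% or more at least once.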

Chains of the proteins cited; added tags and fusions are not shown.
UniProt E9BF75, entry or part of it: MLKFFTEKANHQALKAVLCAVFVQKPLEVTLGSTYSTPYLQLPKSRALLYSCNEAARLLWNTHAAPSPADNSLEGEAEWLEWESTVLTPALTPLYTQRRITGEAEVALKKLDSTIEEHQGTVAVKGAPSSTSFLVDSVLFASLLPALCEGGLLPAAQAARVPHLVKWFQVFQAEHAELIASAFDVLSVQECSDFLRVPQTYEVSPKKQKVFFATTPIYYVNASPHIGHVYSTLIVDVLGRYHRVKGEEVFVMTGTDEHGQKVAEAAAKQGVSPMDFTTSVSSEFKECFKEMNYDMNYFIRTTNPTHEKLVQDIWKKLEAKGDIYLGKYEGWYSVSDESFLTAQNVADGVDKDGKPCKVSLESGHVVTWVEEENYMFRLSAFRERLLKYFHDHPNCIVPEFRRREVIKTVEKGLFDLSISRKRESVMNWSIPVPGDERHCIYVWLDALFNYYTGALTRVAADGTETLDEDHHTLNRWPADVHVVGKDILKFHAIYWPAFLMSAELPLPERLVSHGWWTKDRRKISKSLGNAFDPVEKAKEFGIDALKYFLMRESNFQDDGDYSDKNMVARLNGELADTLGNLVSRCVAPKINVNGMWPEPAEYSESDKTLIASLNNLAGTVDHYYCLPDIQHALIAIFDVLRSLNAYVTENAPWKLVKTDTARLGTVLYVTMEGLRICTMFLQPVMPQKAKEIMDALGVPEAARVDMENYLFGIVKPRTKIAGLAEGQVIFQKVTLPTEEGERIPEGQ

Results are percentages, as filed.
The record does not define 0% and 100%; most values in the screen are far below 50% and negative numbers occur (in some assays of this library far below -100).
This is an unselected part of the compounds tested.

Compound | inhibition
O=C(c1cnc(-c2cccs2)s1)N1CCCN2CCCC2C1 (stereo not shown) | 11.11%
CSc1ccc(CNC(c2ccccc2F)c2nccn2C)cc1 (stereo not shown) | 11.11%
COc1ccccc1OC(C)CNC(=O)c1cnc[nH]1 (stereo not shown) | 8.669%
Cc1[nH]nc(CCC(=O)NCC2COc3ccccc3C2)c1C (stereo not shown) | 20.5%
O=C1N(c2ccccc2)Cc2nc(=O)[nH]n21 | 8.714%
CCN(CC(C)C#N)C(=O)CNc1ccc(F)c(C)c1 (stereo not shown) | 22.64%
O=C(Nc1cnccn1)[C@@H]1C[C@H]2OCC[C@H]2N(c2ncc(F)cn2)C1 | 4.71%
COc1cccc(OC)c1C(=O)N1CCN(c2ccccc2F)CC1 | -5.245%
COCCN(C)C(=O)c1nc2c(s1)CCCN2C | 13.7%
O=S(=O)(N1CCOCC1)N1CCC(Oc2cnccn2)CC1 | 10.94%
Nc1cc(C(=O)NCC2CCN(Cc3cccc(O)c3)C2)ccn1 (stereo not shown) | 10.09%
COCC1CCN(S(=O)(=O)N2C[C@@H](C)[C@@](C)(O)C2)CC1 | 12.2%
CN(C)[C@@H]1CCN(S(=O)(=O)c2cn(C)cn2)[C@H]1Cc1cccnc1 | 12.7%
CCC1=N[C@@]2(CC[C@@H]3CN(C(=O)NCc4cccc(F)c4)C[C@@H]32)C(=O)N1 | 6%
COc1cccc(CN(C)C(=O)CCC(=O)c2ccccc2)c1OC | 7.092%
O=c1ccc2c([nH]1)CCC(NCc1ccc3c(c1)OCO3)C2 (stereo not shown) | 9.137%
Cc1nn2cccnc2c1C(=O)NCc1ccccc1OC1CCC1 | 16.72%
Cc1noc(C)c1-c1ccc(C2CCCN2C(=O)Cn2ccnc2)nc1 (stereo not shown) | 9.003%
CN1CCCCC12Cc1ccccc1CN(C(=O)c1ccccc1)C2 (stereo not shown) | 22.86%
CCc1cc(NCCC(F)(F)F)nc(N2CCOCC2)n1 | 11.62%
CC(=O)c1cc(CN2C[C@@H](C(=O)O)[C@H](c3cccnc3)C2)cs1 | 8.521%
COc1ccc(F)cc1C(C)NC(=O)Nc1nncs1 (stereo not shown) | 2.847%
CCN1CCn2c(C)cnc2C12CCN(C(=O)CC(C)C)CC2 | 7.95%
CCCc1ccc(S(=O)(=O)NC(=O)CCC2CCCO2)cc1 (stereo not shown) | 15.64%
O=C(NCCS(=O)(=O)N1CCc2ccccc21)c1c(O)cc(F)cc1F | 4.861%
O=C(NCC(CO)Cc1ccc(Cl)cc1)c1ccncc1F (stereo not shown) | 21.34%
CC1(C(=O)N2CCOCC2)CNCCO1 (stereo not shown) | 9.969%
CNC(=O)[C@@H]1C[C@H]2CN(C(=O)c3ccco3)C[C@H]2N1C(C)C | 14.52%
Cc1cccc2c1NC1(CCCC1)NC2=O | 14.24%
Cc1ccccc1N1CC2(CCN(S(=O)(=O)c3cccs3)C2)CC1=O (stereo not shown) | 4.377%
CNC(=O)[C@@H]1C[C@@H](NC(=O)c2ccc(OC)o2)CN1Cc1sccc1C | 9.524%
Cn1cc(CN2CC[C@@H]3[C@@H](CO[C@H]3CNC(=O)c3ccco3)C2)cn1 | 22.09%
CN1C(=O)CC(c2cnn(C)c2)C12CCN(C(=O)c1ccc[nH]1)CC2 (stereo not shown) | 14.79%
CN(Cc1cccc(F)c1)S(=O)(=O)N1CCOCC1 | 9.859%
O=C(NCCCn1nc2ccccn2c1=O)NCC(C1CC1)C1CC1 | 15.68%
Cc1noc(CN(CCc2cccs2)Cc2cccc(C#N)c2)n1 | -16.02%
CC(=O)N1CCC2(CCN(CC3CCCCC3)C2)CC1 | 10%
COCC(=O)Nc1ccc(Sc2nncn2C)c(Cl)c1 | 6.361%
CS(=O)(=O)CCSc1nnc(Cc2ccccc2F)o1 | 9.025%
O=c1cc(CN2CCCCC2c2cccc(F)c2)[nH]c2ncnn12 (stereo not shown) | 11.76%
COc1ccc(N2CCN(Cc3nc(CSC)no3)C(C)C2=O)cc1 (stereo not shown) | 17.34%
COc1ccc(OC2CCN(C(=O)[C@@H](N)Cc3c[nH]cn3)CC2)cc1 | 14.02%
Cc1ccc(-c2ccnc(N(C)CC3CCCN3C)n2)c(C)n1 (stereo not shown) | 3.725%
COCCC(=O)Nc1nccn1Cc1ccc(Br)cc1 | 11.72%
Fc1cc(CN2CCCC2Cn2cncn2)c2ncccc2c1 (stereo not shown) | 7.937%
O=C1NCCCCC1NC(=O)N1CCCc2cc(F)ccc21 (stereo not shown) | 13.68%
Cc1cccc(-n2nnnc2C(C)(C)Nc2ccccc2C)c1 | 9.392%
Cc1ccc(C(=O)Nc2ccc(N(C)C)cn2)n1C | 9.945%
Cc1cc(C(=O)N2CCC(NC(=O)c3cccnc3)CC2)c(C)o1 | 22.93%
COCC(=O)N1CCC2(CC1)COCCN2Cc1ccc(F)cc1 | 8.667%
Cn1ccnc1C1CCCN(C(=O)c2cc(F)cc(F)c2)C1 (stereo not shown) | 23.78%
CC(C)=CCN1CCc2onc(-c3ccc(F)c(F)c3)c2C1 | 12.06%
O=C(c1nn(-c2ccccc2F)cc1O)N1CCC2(CC1)OCCO2 | 2.793%
COc1ccc(F)c(CN2CCCC(O)(CNCc3ncc[nH]3)C2=O)c1 (stereo not shown) | 4.897%
CCOc1cc(CN2CCCC2)ccc1Oc1cccc(C#N)n1 | 15.28%
Cc1cnn(CCNCC(O)c2ccc3c(c2)OCCO3)c1 (stereo not shown) | 4.91%
O=c1[nH]cnc2c1CCN(S(=O)(=O)c1cccc(OC(F)(F)F)c1)C2 | 22.12%
Cc1cc(NC2CC3(CCN(Cc4cscn4)C3)C2)ncn1 (stereo not shown) | 9.119%
O=C1CC2(CCN(S(=O)(=O)c3cccs3)C2)CN1c1cccc(F)c1 (stereo not shown) | 7.283%
N#Cc1cc(F)c(NCCCOCC2CCOC2)c(F)c1 (stereo not shown) | 7.397%
COc1cccc(F)c1-c1c[nH]c(C)n1 | 7.042%
CCN1C(=O)[C@H]2CN(Cc3cccnc3)C[C@H]2C12CCN(C(C)=O)CC2 | 7.778%
O=C(c1c[nH]c(=O)[nH]1)N1CCc2ccccc21 | 12.24%
COc1ccc(CCC(=O)N(C(C)C)C2CCOCC2)cc1 | 5.042%
CCCN1Cc2ccccc2CC1C(=O)NC (stereo not shown) | 14.65%
O=C(NCCCn1cncn1)NCC(c1ccccc1)N1CCCC1 (stereo not shown) | 9.722%
Cn1nc(Cn2ccnc2)c2c1CN(C(=O)c1ccoc1)C2 | 15.38%
Cc1cncc(C(=O)N2CCN(c3cnn(C)c(=O)c3)CC2)c1 | 16.43%
CC(C)[C@@H]1CN(Cc2cnc3c(S(C)(=O)=O)cnn3c2)C[C@H]1N(C)C | 12.39%
Nc1cc2c(nn1)CCN(C(=O)c1ccccc1Oc1cccnc1)C2 | 6.425%
Cc1ccc(-c2cc(-c3c(C)nn(CCO)c3C)c(C#N)c(N)n2)cc1 | 11.04%
Cc1cc(NC(=O)NCC(c2ccccc2)N2CCOCC2)n(C)n1 (stereo not shown) | 22.78%
CN(Cc1ccc2nsnc2c1)CC1(O)CNCCOC1 (stereo not shown) | 14.29%
CN(C)c1cc(CNC(=O)Nc2nnc(C3CC3)s2)ccn1 | 23.5%
CN(Cc1cn2c(n1)CN(C(=O)CC1CC1)CC2)Cc1ccco1 | 9.408%
COCCCN1CC2(CCCCN2C(=O)C2CCCCC2)CC1=O (stereo not shown) | 9.783%
Cc1cnn(CC2CCCN2C(=O)c2csc(C3CC3)n2)c1 (stereo not shown) | 20.44%

6 of the entries, repeated:

- COc1cccc(OC)c1C(=O)N1CCN(c2ccccc2F)CC1 | -5.245%
- O=C1NCCCCC1NC(=O)N1CCCc2cc(F)ccc21 (stereo not shown) | 13.68%
- COCCC(=O)Nc1nccn1Cc1ccc(Br)cc1 | 11.72%
- CN(Cc1cccc(F)c1)S(=O)(=O)N1CCOCC1 | 9.859%
- CCc1cc(NCCC(F)(F)F)nc(N2CCOCC2)n1 | 11.62%
- CS(=O)(=O)CCSc1nnc(Cc2ccccc2F)o1 | 9.025%

Data taken from ChEMBL document CHEMBL3988442, “University of Dundee, Small-Polar-MMV Screening Library” (2021).